# Measurements reported in PubChem BioAssay AID743121 (NCATS, 2013)
# Purpose: 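Partners whose loss is lethal together with topoisomerase I blockade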 (primary screen)
# Cells: MDA-MB-231 cells, a human breast cancer line
# Reagent: single siRNA against human genes, 20 nM siRNA (0.8 pmol per well)
# Timing: 120 h (drug added 48 h after transfection, read 72 h later)
# Challenge: camptothecin 20 nM (about EC30) for 72 h; vehicle 0.1% DMSO in parallel plates
# Read-out: 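Cell viability by ATP luminescence (CellTiter-Glo) as % of non-targeting siRNA wells, and the log2 ratio of viability without drug over viability with camptothecin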
# Scale: log2 vehicle/camptothecin viability: higher = stronger sensitisation to camptothecin; viability with camptothecin: higher = more viable cells
# Rule for the call: 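Each gene scored by redundant siRNA activity (RSA) over its individual siRNA ratios; a gene is called active at p < 0.001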
# In all, the deposit lists about 26,000 reagents; below is an unselected part. 167 of all reagents (0.63%) were called active. 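Calls are per gene from RSA p-values that are not deposited; an individual active-marked siRNA can sensitise only weakly.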 Entries without a mark were called inactive. The numbers tell different reagents against one gene apart. Further read-outs or replicates are left out here. Reagent sequences are not shown.
The opening 3 records as a preview:
gene knocked down,siRNA no.,log2 vehicle/camptothecin viability,viability with camptothecin (% of control)
CYP2B6,1,-0.477,40
CYP2B6,2,-0.388,58.7
CYP2B6,3,0.0266,48.1

Results, from the start:
gene knocked down,siRNA no.,log2 vehicle/camptothecin viability,viability with camptothecin (% of control)
CYP2B6,1,-0.477,40
CYP2B6,2,-0.388,58.7
CYP2B6,3,0.0266,48.1
CYP2B6,4,-0.282,57.5
SLC25A1,1,-0.0234,75.8
SLC25A1,2,-0.111,107
SLC25A1,3,-0.0433,43.9
SLC25A1,4,-0.655,51
BMP3,1,-0.293,51.9
BMP3,2,-0.345,45.2
BMP3,3,-0.161,94.6
SERPINB11,1,-0.0784,51.9
SERPINB11,2,-0.41,57
SERPINB11,3,0.111,97.5
NPNT,1,-1.39,40.3
NPNT,2,-0.327,114
NPNT,3,-0.175,119
NPNT,4,-0.00107,70.6
GPR3,1,-0.194,52.3
GPR3,2,0.527,62.8
GPR3,3,-0.27,71.1
GPR3,4,0.0393,61.9
PLAAT3,1,-0.229,113
PLAAT3,2,-0.144,82.9
PLAAT3,3,0.108,72.4
PLAAT3,4,-0.579,91.5
PDCD4,1,-0.129,130
PDCD4,2,-0.329,75.8
PDCD4,3,-0.188,108
PDCD4,4,0.027,66.7
